Reference: paper doi:10.1101/2020.04.10.022483
These are yes or no findings as the source states them, for the method shown. In cells and extracts the contact can be indirect. Some binding calls cover weakened binding; strength is not graded here. Tags and fused reporters may be left off the sequences shown.

T1: Hyperpolarization-activated cyclic nucleotide-sensitive isoform 4 (HCN4) channel, HEK-293 stable line (UniProt Q9Y3Q4)
T1 sequence: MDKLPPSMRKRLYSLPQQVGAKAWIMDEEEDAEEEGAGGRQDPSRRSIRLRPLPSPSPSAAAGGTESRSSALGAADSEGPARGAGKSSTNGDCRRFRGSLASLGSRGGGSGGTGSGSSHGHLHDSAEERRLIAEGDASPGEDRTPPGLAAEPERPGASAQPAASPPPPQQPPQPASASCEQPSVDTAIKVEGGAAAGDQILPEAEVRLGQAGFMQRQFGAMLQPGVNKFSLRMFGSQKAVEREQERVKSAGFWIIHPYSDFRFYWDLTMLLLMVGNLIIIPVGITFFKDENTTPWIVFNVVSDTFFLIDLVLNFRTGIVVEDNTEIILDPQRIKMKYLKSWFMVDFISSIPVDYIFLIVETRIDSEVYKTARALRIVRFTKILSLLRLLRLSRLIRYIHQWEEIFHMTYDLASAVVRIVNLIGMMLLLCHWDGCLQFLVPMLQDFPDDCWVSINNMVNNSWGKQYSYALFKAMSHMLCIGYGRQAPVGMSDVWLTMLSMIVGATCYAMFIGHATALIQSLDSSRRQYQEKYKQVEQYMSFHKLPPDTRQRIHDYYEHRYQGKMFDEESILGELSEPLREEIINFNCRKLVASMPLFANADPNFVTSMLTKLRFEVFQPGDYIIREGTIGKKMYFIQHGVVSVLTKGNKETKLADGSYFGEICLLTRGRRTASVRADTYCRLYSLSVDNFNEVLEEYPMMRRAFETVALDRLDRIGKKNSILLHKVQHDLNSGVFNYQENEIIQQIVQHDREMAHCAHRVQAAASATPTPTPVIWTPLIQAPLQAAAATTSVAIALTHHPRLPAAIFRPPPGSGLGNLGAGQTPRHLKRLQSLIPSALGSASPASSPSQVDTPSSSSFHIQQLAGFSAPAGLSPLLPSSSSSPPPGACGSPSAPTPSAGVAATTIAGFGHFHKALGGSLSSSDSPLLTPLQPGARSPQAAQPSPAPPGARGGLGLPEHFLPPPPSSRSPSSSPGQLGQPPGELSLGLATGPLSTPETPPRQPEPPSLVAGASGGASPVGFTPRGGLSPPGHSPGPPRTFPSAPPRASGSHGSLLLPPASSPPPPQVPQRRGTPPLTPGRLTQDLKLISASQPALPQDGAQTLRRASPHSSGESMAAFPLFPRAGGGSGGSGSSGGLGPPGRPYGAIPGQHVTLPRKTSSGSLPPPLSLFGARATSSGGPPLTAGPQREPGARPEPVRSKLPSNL


Molecular target: T1, Hyperpolarization-activated cyclic nucleotide-sensitive isoform 4 (HCN4) channel, HEK-293 stable line
Experiment: co-IP

binding | Binder
binds | Myc-tagged inositol trisphosphate receptor-associated guanylate kinase substrate (Myc-IRAG), mouse (protein, UniProt Q9WUX5 1-899) MGRSLTCPFGISPACGAQASWSIFGVGTAEVPGTHSHSNQAAAMPHIPEDEEPPGEPQAAQTQDSPSAGPFPSPPTIVLTGDASSPEGETDKNLVNRAPSPHRRLSHRHLKVSTASLTSVDPSGHVIDLVNDQLPDISISEEDKKKNLALLEEAKLVSERFLTRRGRKSRSSLGDSPSAVSPNLSSGASPASSRSCSLTISTSPGLDICSGPQSPLPGAPPQQKGHEDGVSSPCPGEPNVSKGLADLKQNDQRKVSQGRLAPRSPTVEKTKELTVEQKENFDPLQHVEATPMAQASGASISGKMALNSPQPGPAEMELGRQLLKTAREGNPLPRTTAQGSGGTVSPHSLGQGSAGEPMGPKAGSKAELRSPVSRPPLIRGVSWDSSPEEPGPLLQKVLAKLPLAEEEKRFPGKAKPAKPPGLKDFQIQVQPVRMQKLTKLREEHILMRNQNLVGFKLPELSEAAEQDKGVSPELAPAAEEEESKSGLDVMPNISDILLRKLRVHKSLTGSAPPLTEKEVENVFVQLSLAFRNDSYTLESRINQAERERNLTEENTEKELENFKASITSSANIWYHCEHRETYQKLLEDIAVLHRLAARLSSRAEVVGAVRQEKRMSKATEVMMQYVENLKRTYEKDHAELMEFKKLANQNSSRSCGPSEDGVPRTARSMSLTMGKNMPRRRVSVAVVPKFNALNLPGQAPSSSPMPSLPALSESSNGKSSISVSPALPALLENGKTNAEANCEVGAPVPLPSCLEETSQETKAKAEEEAYSKGYQEGVKKTEELQDLKEEEEEEQKTESPEEPEEVEETQEDEKDQGSSKLEELVHFLQVMYPKLCQHWQVIWMMAAVMLVLSVVLGLYSSYNSCTEEADGPPGRSTCSAAQRDSWWSSGLQQELPAEQ
binds | Myc-tagged lymphoid-restricted membrane protein (Myc-LRMP), mouse (protein, UniProt Q60664 1-539) MLCVKGPPEQEPEDGALDVTRGCQCPLPTEDSILGQELLDCTRMNEDQSTDENGAGHFYSESPSQLREYLTQPSSEQTSSSESTVTSSESGSDILHMASGDLDCKPLCEKEEEARAASAMQGTSLAPAAYGDYTSVGVAKAASQLEAGEELRTTENGGKGSAPGETEISMPPKASVKLVNFQQSENTSANEKEVEAEFLRLSLGLKCDWFTLEKRVKLEERSRDLAEENLKKEITNCLKLLESLTPLCEEDNQAQEIVKKLEKSIVLLSQCTARVASRAEMLGAINQESRVSRAVEVMIQHVENLKRMYAKEHAELEDLKQALLQNDRSFNSLPDEDDCQIKKRSSSLNSKPSSLRRVTIASLPRNLGNVGLVSGMENNDRFSRRSSSWRILGTKQGEHRPSLHRFISTYSWADAEDERSDVKARDAPEPQGEEAVERTRKPSLSERRSSTLAWDRGTICSSVASWVTHLQASFRRANRALWLTGLIIILIAALMSFLTGQLFQTAVEAAPTQEGDSWLSLEHILWPFTRLGHDGPPPV
